57 compounds from PubChem BioAssay AID2685 (National Center for Advancing Translational Sciences (NCATS), 2010) can be followed below.

As usually defined, the AC50 is the concentration giving half of the maximal activity seen. Read a low AC50 as greater potency.

This assay can be described thus: qHTS Assay for Lipid Storage Modulators in Drosophila S3 Cells.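 As to cell number change: cells counted by Cell Tracker Red CMTPX staining in the red channel.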 As to conditions: BODIPY lipid droplet fluorescence, 18-24 h; for cell number change: measured here: cell count max response, cells fed with added oleic acid. In short, it runs like this:
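Laser-scanning cytometry quantifies lipid droplet accumulation (500–530 nm total intensity; droplet/cell object ratio) in oleic acid-fed (400 uM added) Drosophila S3 cells treated with a concentration series. 20 uM Triacsin C defined 100% inhibition.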

Setting [1] is: measured here: cell number channel AC50, cells fed with added oleic acid.
Setting [2] is: measured here: lipid fluorescence (Fed channel) AC50, cells fed with added oleic acid.

The other results are listed elsewhere or left out. The main result of the screen is listed elsewhere. These columns were measured beside it and carry no call. The list favours compounds with an active or inconclusive main result. Potencies come from curve fits of mixed quality, noted in brackets.

In the case of `CCn1c(SCC(=O)c2cc(OC)ccc2OC)nnc1C1CC1`, the cell number change was found to be 34.7%. Further, under setting [1], the AC50 is 6.51 µM [rising, partial curve, poor fit]. In addition, the half-maximal activity concentration (AC50) under setting [2] is 8.2 µM [rising, partial curve].

`COc1ccccc1N1CCN(C(=O)CNC(=O)c2ccc(Cl)cc2Cl)CC1`: the cell number change was 18.7%.

As to `CCOC(=O)CSc1nc2c(c(=O)n(C)c(=O)n2C)n1CCCc1ccccc1`, the AC50 under setting [1] is 6.51 µM [rising, partial curve] and the AC50 under setting [2] is 4.11 µM [rising, partial curve].

As to `Cc1ccc(-c2csc(NC(=O)Cc3cccs3)n2)cc1C`, the cell number change came out at 22.6%.

Take `Nc1nc(Nc2cccc(F)c2)nc(NCc2ccco2)c1[N+](=O)[O-]`: the cell number change is -5.3%. Besides, the AC50 under setting [2] was 6.51 µM [rising, single point].

In the case of `COCCN(C)Cc1cn(-c2ccc(F)cc2F)nc1-c1ccccc1C`, the cell number change was -22.1%.

Regarding `CC1(C)C(=O)Nc2ccccc2N1C(=O)Cn1ncc(Cl)c(Cl)c1=O`, the cell number change is -19.9%. Under setting [2], the AC50 is 29.1 µM [falling, single point].

`Cn1c(=O)cc(OCC(=O)N2CCCc3ccccc32)c2ccccc21`: the cell number change is 2.73%. Also, the concentration at half-maximal activity (AC50) under setting [2] is 0.82 µM [rising, full curve].

Turning to `CC(=O)c1ccc(N=C2SCCCN2C(=O)C2CCCC2)cc1`, the cell number change was -38.1%. Under setting [2], the concentration at half-maximal activity (AC50) is 0.651 µM [falling, full curve, poor fit].

Turning to `CSCCC(C(=O)OCC(=O)c1ccc(C)c(C)c1)N1C(=O)c2ccccc2C1=O` (stereo unspecified), the cell number change is -23.7%. Also, under setting [1], the concentration at half-maximal activity (AC50) is 0.184 µM [falling, full curve, poor fit]. The AC50 under setting [2] was 0.103 µM [falling, full curve].

For `COCCCNc1c2c(nc3nnnn13)CCCC2`, the cell number change is -32.9%. The AC50 under setting [1] is 9.2 µM [falling, partial curve]. In addition, the AC50 under setting [2] was 29.1 µM [falling, single point].

As for `COc1ccc(N2CC(C(=O)N3CCN(c4ccccc4OC)CC3)CC2=O)cc1` (stereo unspecified), the cell number change came to 1.28%.

Consider `CN(C)c1ccc(N=Cc2nc(-c3ccccc3)oc2OC(=O)c2cccc(Br)c2)cc1`, for which the cell number change is -1.57%. The half-maximal activity concentration (AC50) under setting [2] is 6.51 µM [rising, single point].

With `Cc1nn(C2CCS(=O)(=O)C2)c(Cl)c1/C=C/C(=O)OCC(=O)Nc1ccccc1OC(F)F` (stereo unspecified), the cell number change is -14.9%. For the same compound, the AC50 under setting [2] was 0.731 µM [rising, single point].

Consider `O=C(O)CN=C(NS(=O)(=O)c1ccccc1)c1ccccc1`, for which the cell number change is 9.8%. The concentration at half-maximal activity (AC50) under setting [2] was 3.26 µM [falling, partial curve].

As for `Cc1cc(=O)[nH]c2ccc(S(=O)(=O)NCc3ccccc3)cc12`, the cell number change is 22.2%. The AC50 under setting [2] was 0.366 µM [falling, full curve].

For `CC(C)OC(=O)c1ccc(N)cc1`, the cell number change came to 12.3%. The concentration at half-maximal activity (AC50) under setting [2] was 0.461 µM [falling, single point].

Consider `Cc1ccccc1NC(=O)CSc1nnc(CNC(=O)c2ccc3c(c2)OCO3)n1C`, for which the cell number change is 23.1%. Moreover, under setting [2], the half-maximal activity concentration (AC50) is 29.1 µM [rising, single point].

Turning to `O=C(O)/C=C/c1coc2ccccc2c1=O`, the cell number change was 14.5%. The concentration at half-maximal activity (AC50) under setting [2] is 23.1 µM [rising, single point].

`Cc1ccc(C(=O)NCC(=O)OCc2c(F)cccc2Cl)cc1`: the cell number change was determined as 33.5%. Moreover, the AC50 under setting [1] is 32.6 µM [rising, single point].

Regarding `CCOc1ccc(NC(=O)Nc2ccc3c(c2)nnn3C)cc1`, the concentration at half-maximal activity (AC50) runs as follows: under setting [1], 0.92 µM [rising, partial curve]; under setting [2], 1.3 µM [rising, partial curve].

For `Cc1cc(N2CCC(C(=O)NC3CCCCC3)CC2)nc(-c2ccccc2)n1`, the cell number change was -16.1%. Besides, the AC50 under setting [2] was 20.6 µM [falling, partial curve].

Turning to `Cn1c(=O)n(Cc2ccccc2)c(=O)c2c1nc1n2CCS1`, the cell number change worked out at 11.1%. Further, the AC50 under setting [1] was 0.411 µM [falling, single point]. The AC50 under setting [2] was 0.517 µM [falling, full curve, poor fit].

For `CC1CCCN(C(=O)Cc2cn(Cc3cccc(Cl)c3)c3ccccc23)C1` (stereo unspecified), the cell number change worked out at 38.3%. Besides, the concentration at half-maximal activity (AC50) under setting [1] is 18.4 µM [rising, partial curve, poor fit]. For the same compound, under setting [2], the half-maximal activity concentration (AC50) is 5.8 µM [rising, full curve].

Turning to `CCOC(=O)c1ccc(Nc2nc(C)nc3c2nnn3Cc2ccccc2)cc1`, the cell number change stood at 21.7%. In addition, under setting [2], the half-maximal activity concentration (AC50) was 10.3 µM [falling, partial curve].

Consider `CCN(CC)CCn1c(N)nc2ccccc21`, for which the cell number change was found to be 35.7%.

Consider `CCN(CC(=O)NCc1ccc(Cl)cc1)C(=O)CSCC(=O)Nc1cccc(C)c1`, for which the cell number change is -23%. Also, the AC50 under setting [2] was 29.1 µM [falling, partial curve, poor fit].

On to `O=C(O)/C=C\C(=O)Nc1ccc(OCc2ccccc2)cc1`, for which the cell number change is -4.09%. Moreover, the concentration at half-maximal activity (AC50) under setting [1] is 0.00461 µM [rising, full curve, poor fit].

For `COc1ccc(N2C(=O)N3[C@H](c4ccc(Cl)cc4)[C@@H]4C(=O)N(C5CCCCC5)C(=O)[C@@H]4[C@]3(Cc3ccc(Cl)cc3)C2=O)cc1`, the cell number change is 49.2%. The AC50 under setting [1] was 13 µM [rising, partial curve, poor fit]. Besides, the AC50 under setting [2] is 29.1 µM [falling, single point].

For `COC(=O)c1ccc(C(=O)OC)c(NC(=O)CN2CCC(C)CC2)c1`, the cell number change was found to be 78.5%. Also, the half-maximal activity concentration (AC50) under setting [1] is 29.1 µM [rising, single point].

Consider `Cc1cc(C)cc(-n2ncc3c2CCCC3NC(=O)C2CCC2)c1` (stereo unspecified), for which the cell number change was -18.1%. Under setting [1], the AC50 is 0.517 µM [falling, full curve]. The concentration at half-maximal activity (AC50) under setting [2] was 0.58 µM [falling, single point].

For the compound `COc1ccc(-c2c(C(F)(F)F)oc3c(CN4CCN(C)CC4)c(O)ccc3c2=O)cc1`, the cell number change was -58.9%. Moreover, under setting [1], the half-maximal activity concentration (AC50) was 25.9 µM [falling, partial curve, poor fit]. The AC50 under setting [2] was 0.092 µM [falling, partial curve, poor fit].

With `CCOc1ccc(NS(=O)(=O)c2ccc3[nH]c(=O)[nH]c3c2)cc1`, the cell number change was -30.2%. Also, the half-maximal activity concentration (AC50) under setting [1] is 0.164 µM [falling, full curve].

In the case of `COc1ccc(C(=O)N2CCN(CCc3ccccn3)CC2)cc1`, the concentration at half-maximal activity (AC50) under setting [2] is 6.51 µM [rising, single point].

For the compound `Cc1ccccc1OCc1nnc(SCc2nc3ccccc3c(=O)[nH]2)n1C`, the cell number change is -30%.

Consider `COc1ccc(CNC(=O)[C@H](C)NC(=O)C2CCN(C(=O)[C@@H](N)Cc3ccccc3)CC2)cc1`, for which the cell number change was -17.5%. Moreover, the AC50 under setting [2] was 0.058 µM [falling, full curve, poor fit].

Regarding `CC(=O)Nc1cccc(C(=O)OCC(=O)N(c2ccccc2)C2CCS(=O)(=O)C2)c1` (stereo unspecified), the half-maximal activity concentration (AC50) is, setting by setting: under setting [1], 6.51 µM [falling, single point]; under setting [2], 4.61 µM [falling, partial curve].

Turning to `COC(=O)c1ccc(Cn2c(C)cc(C)[n+]2C)o1`, the cell number change worked out at 13%.

`Cc1ccc(-n2c(SCC(=O)Nc3ccc4c5c(cccc35)CC4)nc(O)cc2=O)cc1`: the cell number change worked out at 15.8%. Under setting [2], the AC50 is 1.03 µM [rising, partial curve, poor fit].

Consider `COCCn1c(=O)c2cc3c(=O)n(CCOC)c(=O)c3cc2c1=O`, for which the cell number change is -22.2%. Further, the AC50 under setting [1] is 2.06 µM [falling, partial curve, poor fit]. The AC50 under setting [2] was 29.1 µM [falling, single point].

Take `COc1ccc(S(=O)(=O)N2CCN(CC(O)COc3ccc(CC#N)cc3)CC2)cc1OC` (stereo unspecified): the cell number change came to 34.2%. For the same compound, the half-maximal activity concentration (AC50) under setting [1] was 29.1 µM [rising, single point]. Further, the half-maximal activity concentration (AC50) under setting [2] is 11.6 µM [rising, single point].

With `COc1ccc(C2=NOC(COc3ccc([N+](=O)[O-])cc3)C2)cc1` (stereo unspecified), the cell number change came out at 24.6%. Moreover, the concentration at half-maximal activity (AC50) under setting [2] is 0.651 µM [rising, full curve, poor fit].

`Cc1ccc(NC(=O)c2ccc3c(c2)[nH]c(=O)n3C(C)C)cc1`: the cell number change was -37.8%.

With `O=C(NC1CCN(C(=O)c2ccccc2Br)CC1)c1ccccc1`, the cell number change is -50.1%. Moreover, under setting [1], the AC50 is 23.1 µM [falling, single point]. Also, the half-maximal activity concentration (AC50) under setting [2] was 23.1 µM [falling, partial curve].

Turning to `O=C(Cn1cnc2c(nnn2Cc2ccc(F)cc2)c1=O)Nc1cccc(F)c1`, the cell number change is 23.2%. The AC50 under setting [2] is 4.61 µM [rising, single point].

On to `Cn1ccc(=Nc2ccc(NC(=O)c3ccc(N=c4ccn(C)c5ccc([N+](=O)[O-])cc45)cc3)cc2)cc1`, for which the cell number change is 86.5%. The half-maximal activity concentration (AC50) under setting [1] was 2.91 µM [rising, full curve]. Besides, the AC50 under setting [2] was 4.11 µM [rising, full curve].

Take `CC(C)(C)OC(=O)COc1cc(F)ccc1[N+](=O)[O-]`: the cell number change is 17.8%. Moreover, the AC50 under setting [2] is 0.92 µM [rising, partial curve].

With `COCCCn1c(=O)c2sccc2n(Cc2cccc(F)c2)c1=O`, the concentration at half-maximal activity (AC50) under setting [1] is 2.06 µM [rising, partial curve].

Turning to `O=C(NNC(=O)c1ccccc1O)c1ccc(Br)cc1`, the cell number change is -24.8%. In addition, the AC50 under setting [2] was 6.51 µM [falling, single point].

As to `CNC(=O)/C(=N\O)c1ccccc1`, the cell number change came to 0.864%. Besides, the concentration at half-maximal activity (AC50) under setting [2] was 6.51 µM [rising, single point].

On to `O=C(NCc1cccs1)c1nn2cccnc2c1Cl`, for which the AC50 by setting is: under setting [1], 0.326 µM [rising, single point]; under setting [2], 0.146 µM [rising, full curve, poor fit].

`O=C(CC1C(=O)N(Cc2ccccc2)C(=S)N1CCN1CCOCC1)Nc1ccc(F)cc1` (stereo unspecified): the cell number change came out at 100%. The AC50 under setting [2] was 0.651 µM [rising, partial curve, poor fit].

`Cc1ccc(C(C#N)c2ccc3c(C(F)(F)F)cc(C(F)(F)F)nc3n2)cc1` (stereo unspecified): the cell number change is 14.3%. Besides, under setting [2], the half-maximal activity concentration (AC50) is 0.092 µM [rising, full curve, poor fit].

Consider `Cc1ccc([N+](=O)[O-])cc1S(=O)(=O)Nc1ccccn1`, for which the cell number change is -5.99%. Also, under setting [2], the AC50 was 6.51 µM [falling, single point].

For the compound `O=C(O)CC1(CC(=O)NCc2ccc(C(F)(F)F)cc2)CCCCC1`, the cell number change came to 15.1%. The concentration at half-maximal activity (AC50) under setting [1] was 4.11 µM [falling, single point].

With `CCN(CC)C(=O)COC(=O)c1cc(-c2ccc(OC)cc2)nc2ccccc12`, the cell number change is 11.9%. The concentration at half-maximal activity (AC50) under setting [2] is 0.58 µM [rising, full curve].

With `COc1ccc(-c2cc(C(F)(F)F)nc(NCc3cccs3)n2)cc1`, the cell number change was found to be 12.2%. Under setting [2], the half-maximal activity concentration (AC50) was 0.651 µM [rising, full curve, poor fit].
